Some of the results follow.
Legend:
Assay in all cases: log2 fold change, soluble protein after heating vs DMSO (PISA); higher = thermal stabilisation; K562 cells, 10 uM, 30 min; active = over 0.2 and 3.5 SD of the protein, either way, in both replicates (recomputed)
[1] = compound: COC1=CC=C(C=C1)CN2C=CC3=C2C=C(C=C3)C(=O)NO
Summary of the method: (§1)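 K562 cells (2×10^6 cells/mL) were treated with 10 μM compound for 30 min, and aliquots were heated for 3 min over 48°C-58°C. Pooled aliquots were extracted in PBS with 0.5% NP-40 at 4°C, and the supernatant after 21,000xg for 90 min was measured by TMTpro 16plex LC-MS/MS with channel sums equalised. Reported thermal stability, relative to control samples and from duplicates, is a log2 fold change.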

Amino acid sequences for entries named in this document (tags omitted). A change or cut given only in a name is not applied to a line headed by its entry.
UniProt Q9UHY8: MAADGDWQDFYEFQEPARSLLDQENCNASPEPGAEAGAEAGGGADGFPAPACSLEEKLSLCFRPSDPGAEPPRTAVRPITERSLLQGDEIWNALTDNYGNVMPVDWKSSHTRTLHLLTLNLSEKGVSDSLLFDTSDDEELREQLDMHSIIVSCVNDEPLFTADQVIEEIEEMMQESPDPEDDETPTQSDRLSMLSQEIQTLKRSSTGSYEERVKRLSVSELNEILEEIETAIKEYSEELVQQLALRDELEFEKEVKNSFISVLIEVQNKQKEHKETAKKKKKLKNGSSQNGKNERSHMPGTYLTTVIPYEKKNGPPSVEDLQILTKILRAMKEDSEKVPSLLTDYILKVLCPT
UniProt Q8N8J7: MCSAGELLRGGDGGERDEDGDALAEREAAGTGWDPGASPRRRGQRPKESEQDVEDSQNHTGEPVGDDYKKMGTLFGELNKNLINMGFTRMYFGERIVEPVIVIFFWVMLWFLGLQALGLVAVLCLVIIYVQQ
UniProt Q8TES7: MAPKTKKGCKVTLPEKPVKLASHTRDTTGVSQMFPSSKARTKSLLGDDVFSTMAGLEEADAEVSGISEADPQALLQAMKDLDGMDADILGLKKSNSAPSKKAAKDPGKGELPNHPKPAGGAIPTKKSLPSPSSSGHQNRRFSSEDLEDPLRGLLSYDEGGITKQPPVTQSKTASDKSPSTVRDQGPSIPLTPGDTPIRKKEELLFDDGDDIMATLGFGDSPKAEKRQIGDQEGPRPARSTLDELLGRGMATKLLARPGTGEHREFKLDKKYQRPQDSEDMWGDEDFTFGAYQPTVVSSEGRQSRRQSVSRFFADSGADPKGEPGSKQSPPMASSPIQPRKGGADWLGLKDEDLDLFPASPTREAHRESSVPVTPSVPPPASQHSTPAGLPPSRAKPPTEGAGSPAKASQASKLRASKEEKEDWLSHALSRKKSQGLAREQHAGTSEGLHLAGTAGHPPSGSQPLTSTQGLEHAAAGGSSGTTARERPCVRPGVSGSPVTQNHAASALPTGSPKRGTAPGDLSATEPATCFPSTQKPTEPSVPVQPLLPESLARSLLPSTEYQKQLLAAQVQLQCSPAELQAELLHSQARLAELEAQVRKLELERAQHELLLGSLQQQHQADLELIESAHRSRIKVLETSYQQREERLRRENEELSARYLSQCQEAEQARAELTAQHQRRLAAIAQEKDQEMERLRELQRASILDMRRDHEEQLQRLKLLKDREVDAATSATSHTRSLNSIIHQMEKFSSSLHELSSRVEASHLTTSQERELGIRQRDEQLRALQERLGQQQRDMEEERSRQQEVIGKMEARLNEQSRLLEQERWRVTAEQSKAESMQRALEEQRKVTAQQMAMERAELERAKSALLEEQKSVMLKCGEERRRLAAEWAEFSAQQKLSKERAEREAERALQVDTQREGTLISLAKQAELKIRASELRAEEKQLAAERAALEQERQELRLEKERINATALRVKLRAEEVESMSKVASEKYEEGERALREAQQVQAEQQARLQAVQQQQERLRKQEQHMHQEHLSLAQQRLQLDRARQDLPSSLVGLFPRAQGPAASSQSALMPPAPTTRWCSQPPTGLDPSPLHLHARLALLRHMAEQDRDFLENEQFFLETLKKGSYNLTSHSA
UniProt Q14517: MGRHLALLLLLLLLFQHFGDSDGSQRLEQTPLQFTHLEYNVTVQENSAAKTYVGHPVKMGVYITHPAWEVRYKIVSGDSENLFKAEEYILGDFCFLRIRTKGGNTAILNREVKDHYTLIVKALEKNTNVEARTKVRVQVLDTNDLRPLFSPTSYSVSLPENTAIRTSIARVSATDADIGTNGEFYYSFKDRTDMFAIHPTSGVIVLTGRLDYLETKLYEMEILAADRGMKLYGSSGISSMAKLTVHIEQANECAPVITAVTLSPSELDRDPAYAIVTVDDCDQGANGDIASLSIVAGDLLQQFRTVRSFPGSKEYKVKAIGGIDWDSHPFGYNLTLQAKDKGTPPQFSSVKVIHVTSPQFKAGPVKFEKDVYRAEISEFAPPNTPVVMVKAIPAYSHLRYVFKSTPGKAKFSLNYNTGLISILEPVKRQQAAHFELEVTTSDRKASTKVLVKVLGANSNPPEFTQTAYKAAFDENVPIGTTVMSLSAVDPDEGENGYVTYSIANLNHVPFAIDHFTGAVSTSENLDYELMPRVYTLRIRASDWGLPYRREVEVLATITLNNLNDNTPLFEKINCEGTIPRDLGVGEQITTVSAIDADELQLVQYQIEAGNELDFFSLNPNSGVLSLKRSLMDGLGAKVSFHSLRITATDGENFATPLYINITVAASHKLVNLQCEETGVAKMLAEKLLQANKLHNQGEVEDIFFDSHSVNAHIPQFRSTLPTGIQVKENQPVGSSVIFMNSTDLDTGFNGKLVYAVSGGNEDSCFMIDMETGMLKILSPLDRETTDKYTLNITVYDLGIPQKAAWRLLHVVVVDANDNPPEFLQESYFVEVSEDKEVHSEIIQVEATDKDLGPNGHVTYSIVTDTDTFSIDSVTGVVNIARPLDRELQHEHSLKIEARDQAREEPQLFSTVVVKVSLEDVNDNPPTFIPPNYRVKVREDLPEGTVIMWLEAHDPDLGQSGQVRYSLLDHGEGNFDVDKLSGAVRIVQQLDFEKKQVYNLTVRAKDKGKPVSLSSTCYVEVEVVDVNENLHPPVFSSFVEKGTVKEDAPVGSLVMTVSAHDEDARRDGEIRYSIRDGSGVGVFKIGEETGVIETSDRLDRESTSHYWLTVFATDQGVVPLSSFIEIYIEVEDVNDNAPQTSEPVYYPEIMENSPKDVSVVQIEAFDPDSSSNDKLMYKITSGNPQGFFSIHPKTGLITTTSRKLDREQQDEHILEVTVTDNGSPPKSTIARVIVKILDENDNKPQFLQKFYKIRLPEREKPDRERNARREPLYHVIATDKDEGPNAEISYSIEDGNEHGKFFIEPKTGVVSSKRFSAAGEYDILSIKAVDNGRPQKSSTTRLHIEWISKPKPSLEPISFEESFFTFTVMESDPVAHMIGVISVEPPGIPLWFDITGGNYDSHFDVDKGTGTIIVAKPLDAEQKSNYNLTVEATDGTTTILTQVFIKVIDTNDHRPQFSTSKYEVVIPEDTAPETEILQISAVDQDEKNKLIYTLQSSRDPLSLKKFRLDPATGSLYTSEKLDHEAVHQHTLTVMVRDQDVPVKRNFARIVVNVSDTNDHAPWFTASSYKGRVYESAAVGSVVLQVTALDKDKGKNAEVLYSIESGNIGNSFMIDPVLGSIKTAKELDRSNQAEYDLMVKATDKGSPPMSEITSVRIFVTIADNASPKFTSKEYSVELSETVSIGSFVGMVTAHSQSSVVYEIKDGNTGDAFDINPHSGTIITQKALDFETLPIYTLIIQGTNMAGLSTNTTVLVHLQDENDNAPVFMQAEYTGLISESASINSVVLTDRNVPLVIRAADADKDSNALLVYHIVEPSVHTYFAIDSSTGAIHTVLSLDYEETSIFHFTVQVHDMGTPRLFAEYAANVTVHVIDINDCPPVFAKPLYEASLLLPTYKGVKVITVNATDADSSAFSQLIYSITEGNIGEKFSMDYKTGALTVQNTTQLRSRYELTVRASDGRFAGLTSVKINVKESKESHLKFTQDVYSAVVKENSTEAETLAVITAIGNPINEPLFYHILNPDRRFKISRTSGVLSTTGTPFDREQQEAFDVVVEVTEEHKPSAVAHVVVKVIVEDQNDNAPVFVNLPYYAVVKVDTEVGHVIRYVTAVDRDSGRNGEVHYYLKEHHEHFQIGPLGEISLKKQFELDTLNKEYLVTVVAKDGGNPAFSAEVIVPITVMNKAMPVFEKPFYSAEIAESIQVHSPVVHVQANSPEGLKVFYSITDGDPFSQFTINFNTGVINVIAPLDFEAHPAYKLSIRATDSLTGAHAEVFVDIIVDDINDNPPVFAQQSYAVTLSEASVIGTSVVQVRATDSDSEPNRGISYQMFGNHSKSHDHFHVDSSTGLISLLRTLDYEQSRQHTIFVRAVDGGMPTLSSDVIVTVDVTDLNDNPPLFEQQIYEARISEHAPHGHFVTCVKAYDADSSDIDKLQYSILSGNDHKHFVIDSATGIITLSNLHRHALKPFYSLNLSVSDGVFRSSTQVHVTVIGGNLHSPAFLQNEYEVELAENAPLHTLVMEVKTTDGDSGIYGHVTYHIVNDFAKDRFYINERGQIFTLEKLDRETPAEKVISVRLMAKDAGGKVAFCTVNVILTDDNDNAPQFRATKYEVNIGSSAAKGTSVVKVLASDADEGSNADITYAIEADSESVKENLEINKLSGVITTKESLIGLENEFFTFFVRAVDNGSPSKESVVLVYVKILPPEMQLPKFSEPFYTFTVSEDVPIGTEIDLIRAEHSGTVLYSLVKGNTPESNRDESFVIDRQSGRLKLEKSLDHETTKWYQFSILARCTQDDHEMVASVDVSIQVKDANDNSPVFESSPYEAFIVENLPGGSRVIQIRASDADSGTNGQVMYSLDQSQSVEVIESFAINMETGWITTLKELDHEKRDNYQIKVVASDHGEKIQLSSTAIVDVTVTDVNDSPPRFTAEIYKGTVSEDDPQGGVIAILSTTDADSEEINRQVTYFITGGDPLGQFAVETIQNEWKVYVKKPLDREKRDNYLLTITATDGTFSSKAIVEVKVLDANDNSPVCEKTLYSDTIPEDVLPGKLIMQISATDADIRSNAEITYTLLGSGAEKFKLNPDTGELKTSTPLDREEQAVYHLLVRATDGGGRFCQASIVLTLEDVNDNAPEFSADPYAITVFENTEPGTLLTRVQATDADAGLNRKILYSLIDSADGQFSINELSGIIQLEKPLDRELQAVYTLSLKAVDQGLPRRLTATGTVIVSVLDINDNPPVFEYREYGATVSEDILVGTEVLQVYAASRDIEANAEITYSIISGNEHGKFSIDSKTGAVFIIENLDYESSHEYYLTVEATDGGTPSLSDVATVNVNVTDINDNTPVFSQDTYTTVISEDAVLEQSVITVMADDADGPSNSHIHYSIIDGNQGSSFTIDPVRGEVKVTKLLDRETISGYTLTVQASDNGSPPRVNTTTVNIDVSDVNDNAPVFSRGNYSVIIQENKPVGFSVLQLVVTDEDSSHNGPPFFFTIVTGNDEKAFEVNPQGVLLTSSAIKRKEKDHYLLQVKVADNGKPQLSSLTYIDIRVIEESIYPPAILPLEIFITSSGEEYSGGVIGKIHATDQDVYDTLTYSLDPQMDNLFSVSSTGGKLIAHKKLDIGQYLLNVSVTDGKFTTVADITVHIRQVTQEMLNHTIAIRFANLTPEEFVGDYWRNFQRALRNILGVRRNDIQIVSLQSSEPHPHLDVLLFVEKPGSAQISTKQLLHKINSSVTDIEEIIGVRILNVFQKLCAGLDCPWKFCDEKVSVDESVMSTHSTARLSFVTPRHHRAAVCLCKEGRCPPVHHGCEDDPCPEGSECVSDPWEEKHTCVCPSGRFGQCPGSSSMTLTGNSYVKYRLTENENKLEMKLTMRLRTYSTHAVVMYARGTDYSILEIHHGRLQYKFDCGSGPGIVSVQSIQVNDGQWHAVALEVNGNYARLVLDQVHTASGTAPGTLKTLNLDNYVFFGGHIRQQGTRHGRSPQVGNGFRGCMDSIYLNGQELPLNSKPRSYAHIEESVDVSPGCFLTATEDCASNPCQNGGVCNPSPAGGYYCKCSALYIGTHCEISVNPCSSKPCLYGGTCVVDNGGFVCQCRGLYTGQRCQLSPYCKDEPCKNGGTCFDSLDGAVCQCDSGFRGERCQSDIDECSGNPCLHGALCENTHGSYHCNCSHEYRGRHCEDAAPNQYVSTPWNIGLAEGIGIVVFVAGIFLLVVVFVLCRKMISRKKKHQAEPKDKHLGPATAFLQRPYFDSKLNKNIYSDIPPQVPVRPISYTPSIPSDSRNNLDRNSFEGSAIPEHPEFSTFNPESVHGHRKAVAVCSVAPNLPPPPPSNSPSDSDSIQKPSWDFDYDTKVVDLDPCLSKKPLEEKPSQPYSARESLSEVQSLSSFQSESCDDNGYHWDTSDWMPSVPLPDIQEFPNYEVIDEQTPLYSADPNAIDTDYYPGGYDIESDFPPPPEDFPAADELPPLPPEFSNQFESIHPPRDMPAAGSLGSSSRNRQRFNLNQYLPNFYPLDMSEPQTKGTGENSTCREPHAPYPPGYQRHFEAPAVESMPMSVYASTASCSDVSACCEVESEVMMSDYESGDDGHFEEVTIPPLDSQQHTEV
UniProt Q5JUQ0: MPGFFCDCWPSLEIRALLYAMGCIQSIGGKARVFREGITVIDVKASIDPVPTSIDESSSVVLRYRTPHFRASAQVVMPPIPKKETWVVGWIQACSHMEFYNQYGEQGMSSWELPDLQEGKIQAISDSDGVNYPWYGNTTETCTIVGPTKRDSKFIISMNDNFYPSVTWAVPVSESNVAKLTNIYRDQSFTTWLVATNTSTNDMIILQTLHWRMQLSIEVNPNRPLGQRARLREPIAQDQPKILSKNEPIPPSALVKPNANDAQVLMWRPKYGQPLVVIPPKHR

filanesib = compound: CON(C)C(=O)N1N=C(c2cc(F)ccc2F)S[C@@]1(CCCN)c1ccccc1 [filanesib]
Summary of the method: as §1

zotarolimus = compound: CO[C@H]1C[C@@H]2CC[C@@H](C)[C@@](O)(O2)C(=O)C(=O)N2CCCC[C@H]2C(=O)O[C@H]([C@H](C)C[C@@H]2CC[C@H](n3cnnn3)[C@H](OC)C2)CC(=O)[C@H](C)/C=C(\C)[C@@H](O)[C@@H](OC)C(=O)[C@H](C)C[C@H](C)/C=C/C=C/C=C/1C [zotarolimus]
Summary of the method: as §1

idasanutlin = compound: COc1cc(C(=O)O)ccc1NC(=O)[C@@H]1N[C@@H](CC(C)(C)C)[C@](C#N)(c2ccc(Cl)cc2F)[C@H]1c1cccc(Cl)c1F [idasanutlin]
Summary of the method: as §1

alisertib = compound: COc1cc(Nc2ncc3c(n2)-c2ccc(Cl)cc2C(c2c(F)cccc2OC)=NC3)ccc1C(=O)O [alisertib]
Summary of the method: as §1

[2] = compound: COc1cc2nc(-c3cc(F)ccc3O)nc(N[C@@H]3CNC[C@H]3C(C)(C)O)c2cc1OC
Summary of the method: as §1

gefitinib = compound: COc1cc2ncnc(Nc3ccc(F)c(Cl)c3)c2cc1OCCCN1CCOCC1 [gefitinib]
Summary of the method: as §1

[3] = compound: COc1cccc2cc(-c3nc([C@H]4CC[C@H](C(=O)O)CC4)n4ncnc(N)c34)[nH]c12
Summary of the method: as §1

lapatinib = compound: CS(=O)(=O)CCNCc1ccc(-c2ccc3ncnc(Nc4ccc(OCc5cccc(F)c5)c(Cl)c4)c3c2)o1 [lapatinib]
Summary of the method: as §1

pictilisib = compound: CS(=O)(=O)N1CCN(Cc2cc3nc(-c4cccc5[nH]ncc45)nc(N4CCOCC4)c3s2)CC1 [pictilisib]
Summary of the method: as §1

[4] = compound: CS(=O)(=O)c1ccc(-c2cnc(N)c(C(=O)Nc3ccccc3)n2)cc1
Summary of the method: as §1

crizotinib = compound: C[C@@H](Oc1cc(-c2cnn(C3CCNCC3)c2)cnc1N)c1c(Cl)ccc(F)c1Cl [crizotinib]
Summary of the method: as §1

[5] = compound: C[C@@H]1COCCN1C2=NC(=NC(=C2)C3(CC3)S(=O)(=O)C)C4=C5C=CNC5=CC=C4
Summary of the method: as §1

[6] = compound: C[C@H](C1=CC=C(C=C1)C(=O)NC2=C3C=CNC3=NC=C2)N
Summary of the method: as §1

gandotinib = compound: Cc1cc(Nc2cc(CN3CCOCC3)c3nc(C)c(Cc4ccc(Cl)cc4F)n3n2)n[nH]1 [gandotinib]
Summary of the method: as §1

[7] = compound: Cc1cc(SCc2sc(-c3ccc(C(F)(F)F)cc3)nc2C)ccc1OCC(=O)O
Summary of the method: as §1

doramapimod = compound: Cc1ccc(-n2nc(C(C)(C)C)cc2NC(=O)Nc2ccc(OCCN3CCOCC3)c3ccccc23)cc1 [doramapimod]
Summary of the method: as §1

ispinesib = compound: Cc1ccc(C(=O)N(CCCN)[C@@H](c2nc3cc(Cl)ccc3c(=O)n2Cc2ccccc2)C(C)C)cc1 [ispinesib]
Summary of the method: as §1

duvelisib = compound: C[C@H](Nc1ncnc2nc[nH]c12)c1cc2cccc(Cl)c2c(=O)n1-c1ccccc1 [duvelisib]
Summary of the method: as §1

tozasertib = compound: Cc1cc(Nc2cc(N3CCN(C)CC3)nc(Sc3ccc(NC(=O)C4CC4)cc3)n2)n[nH]1 [tozasertib]
Summary of the method: as §1

| Target | log2 fold change [1] | log2 fold change (filanesib) | log2 fold change (zotarolimus) | log2 fold change (idasanutlin) | log2 fold change (alisertib) | log2 fold change [2] | log2 fold change (gefitinib) | log2 fold change [3] | log2 fold change (lapatinib) | log2 fold change (pictilisib) | log2 fold change [4] | log2 fold change (crizotinib) | log2 fold change [5] | log2 fold change [6] | log2 fold change (gandotinib) | log2 fold change [7] | log2 fold change (doramapimod) | log2 fold change (ispinesib) | log2 fold change (duvelisib) | log2 fold change (tozasertib) |
| --- | --- | --- | --- | --- | --- | --- | --- | --- | --- | --- | --- | --- | --- | --- | --- | --- | --- | --- | --- | --- |
| FKBP4 (UniProt Q02790) | inactive: 0.015 | inactive: -0.066 | inactive: 0.077 | inactive: -0.048 | inactive: -0.018 | inactive: 0.031 | inactive: 0.008 | inactive: 0.009 | inactive: -0.062 | inactive: 0.027 | inactive: 0.013 | inactive: -0.008 | inactive: 0.042 | inactive: -0.068 | inactive: -0.105 | inactive: 0.077 | inactive: -0.052 | inactive: -0.017 |  |  |
| FAM89A (UniProt Q96GI7) | inactive: 0.062 | inactive: 0.184 |  |  | inactive: -0.16 |  | inactive: 0.125 | inactive: 0.101 |  |  | inactive: -0.028 | inactive: -0.115 |  |  |  |  | inactive: 0.014 | inactive: 0.047 |  |  |
| FEZ2 isoform 2 (UniProt Q9UHY8) | inactive: 0.166 | inactive: 0.057 | inactive: -0.003 | inactive: 0.074 | inactive: 0.038 | inactive: 0.106 | inactive: 0.041 | inactive: 0.124 | inactive: -0.219 | inactive: -0.044 | inactive: -0.02 | inactive: 0.014 |  | inactive: 0.003 | inactive: -0.171 | inactive: 0.015 | inactive: 0.019 | inactive: -0.132 | inactive: 0.052 |  |
| FCHSD1 (UniProt Q86WN1) | inactive: -0.034 | inactive: 0.178 | inactive: -0.138 | inactive: -0.148 |  | inactive: 0.059 |  |  | inactive: -0.06 | inactive: -0.039 | inactive: 0.019 | inactive: -0.01 | inactive: 0.015 | inactive: -0.049 | inactive: -0.083 | inactive: -0.012 | inactive: 0.03 | inactive: 0.051 | inactive: 0.093 |  |
| FCF1 (UniProt Q9Y324) | inactive: -0.026 | inactive: 0.405 |  |  | inactive: -0.272 | inactive: 0.1 |  | inactive: -0.299 | inactive: 0.157 | inactive: -0.262 | inactive: 0.06 | inactive: -0.054 | inactive: -0.225 |  | inactive: 0.155 | inactive: 0.103 | inactive: 0.244 | inactive: -0.095 |  |  |
| FAM241A (UniProt Q8N8J7) | inactive: 0.226 | active: -0.828 | inactive: -0.045 | inactive: 0.018 | inactive: -0.038 | inactive: 0.042 | inactive: 0.044 | inactive: -0.006 | inactive: -0.038 | inactive: 0 | inactive: -0.235 | inactive: 0.117 |  | inactive: -0.007 | inactive: -0.077 | inactive: -0.034 | inactive: -0.018 | inactive: -0.069 |  |  |
| FECH isoform 2 (UniProt P22830) | inactive: 0.159 | inactive: -0.188 | inactive: 0.082 | inactive: -0.127 | inactive: -0.185 | inactive: 0.363 | inactive: 0.153 | inactive: 0.062 | inactive: 0.269 | inactive: 0.396 | inactive: 0.527 | inactive: 0.021 | inactive: 0.161 | inactive: -0.12 | inactive: 0.178 | inactive: 0.029 | inactive: 0.071 | inactive: -0.37 |  |  |
| FIZ1 (UniProt Q96SL8) | inactive: -0.081 | inactive: 0.078 | inactive: 0.048 |  | inactive: 0.117 |  | inactive: 0.001 | inactive: -0.108 |  | inactive: 0.016 | inactive: -0.05 | inactive: 0.018 | inactive: -0.354 | inactive: 0.074 | inactive: 0.024 | inactive: 0.017 | inactive: 0.044 |  |  |  |
| FBF1 isoform 6 (UniProt Q8TES7) | inactive: -0.017 |  |  | inactive: -0.182 |  |  | inactive: 0.206 |  |  |  |  | inactive: 0.051 |  |  |  | inactive: 0.022 | inactive: 0.102 |  | inactive: -0.168 |  |
| FAT1 (UniProt Q14517) | inactive: 0.098 | inactive: 0.097 | inactive: -0.08 |  | inactive: -0.267 | inactive: 0.027 | inactive: 0.023 | inactive: -0.098 | inactive: 0.029 | inactive: 0.041 | inactive: 0.027 | inactive: 0.061 | inactive: -0.054 | inactive: 0.144 | inactive: 0.061 | inactive: 0.009 | active: -0.435 | inactive: -0.096 |  |  |
| FBXW9 (UniProt Q5XUX1) | inactive: -0.045 | inactive: -0.072 | inactive: 0.021 | inactive: -0.031 | inactive: 0.05 | inactive: -0.015 | inactive: 0.016 | inactive: 0.038 | inactive: -0.009 |  | inactive: 0.03 | inactive: 0.014 | inactive: 0.063 | inactive: 0.121 |  | inactive: 0.005 | inactive: 0.019 | inactive: 0.042 | inactive: 0.041 | inactive: -0.014 |
| FAM210B (UniProt Q96KR6) | inactive: 0.014 | inactive: -0.078 | inactive: -0.023 | inactive: -0.043 |  |  | inactive: -0.024 |  |  | inactive: -0.041 | inactive: 0.058 | inactive: 0.029 | inactive: 0.018 | inactive: 0.045 | inactive: -0.043 | inactive: -0.001 | inactive: -0.001 | inactive: 0.099 | inactive: -0.005 |  |
| FCGR2A (UniProt P12318) | inactive: -0.08 | inactive: 0.096 |  | inactive: -0.045 | inactive: -0.148 | inactive: -0.026 | inactive: 0.029 | inactive: 0.107 | inactive: 0.006 | inactive: 0.023 | inactive: -0.07 | inactive: 0.035 | inactive: 0.347 |  | inactive: 0.082 | inactive: 0.128 | inactive: -0.135 | inactive: 0.124 | inactive: 0.287 | inactive: -0.012 |
| FASTKD1 (UniProt Q53R41) | inactive: -0.037 | inactive: -0.011 | inactive: -0.192 | inactive: -0.028 |  |  | inactive: 0.473 |  |  | inactive: 0.127 | inactive: 0.097 | inactive: 0.001 | inactive: 0.097 | inactive: -0.027 | inactive: -0.284 | inactive: 0.12 | inactive: 0.037 | inactive: -0.013 |  |  |
| FBXO38 (UniProt Q6PIJ6) | inactive: -0.335 | inactive: 0.162 | inactive: -0.061 | inactive: -0.044 |  | inactive: -0.005 |  |  | inactive: -0.029 |  | inactive: 0.13 | inactive: 0.062 | inactive: 0.041 | inactive: 0.056 |  | inactive: 0.169 | inactive: -0.044 | inactive: 0.071 | inactive: -0.103 | inactive: -0.059 |
| FAT2 (UniProt Q9NYQ8) | inactive: 0.247 |  | inactive: 0.104 |  | inactive: 0.208 | inactive: 0.031 |  | inactive: -0.024 | inactive: -0.089 | inactive: -0.497 |  | inactive: -0.148 | inactive: 0.131 | inactive: 0.306 | inactive: -0.149 | inactive: 0.121 | inactive: 0.006 | inactive: -0.006 |  |  |
| FMR1 (UniProt Q06787) | inactive: -0.3 | inactive: 0.219 | inactive: 0.005 |  | inactive: -0.023 | inactive: 0.286 |  | inactive: 0.322 | inactive: -0.027 | inactive: 0.036 | inactive: -0.067 | inactive: 0.151 |  | inactive: 0.199 | inactive: 0.045 |  | inactive: -0.065 | inactive: -0.022 |  |  |
| FBRS (UniProt J3KNZ9) | inactive: -0.397 | inactive: 0.391 | inactive: -0.101 | inactive: 0.27 |  | inactive: 0.242 | inactive: -0.076 |  | inactive: -0.188 | inactive: -0.068 | inactive: 0.016 | inactive: -0.244 | inactive: -0.45 | inactive: 0.768 | inactive: 0.124 |  | inactive: 0.531 |  |  |  |
| FAM78A (UniProt Q5JUQ0) | inactive: -0.004 | inactive: 0.043 | inactive: -0.029 | inactive: 0.012 |  | inactive: 0.043 | inactive: -0.018 |  | inactive: -0.119 | inactive: 0.176 | inactive: 0.153 | inactive: -0.138 | inactive: 0.049 | inactive: 0.291 | inactive: -0.211 | inactive: 0.011 | inactive: 0.006 | inactive: -0.05 | inactive: 0.04 | inactive: 0.008 |

Some of the entries above in a different format:
Target,log2 fold change [1],log2 fold change (filanesib),log2 fold change (zotarolimus),log2 fold change (idasanutlin),log2 fold change (alisertib),log2 fold change [2],log2 fold change (gefitinib),log2 fold change [3],log2 fold change (lapatinib),log2 fold change (pictilisib),log2 fold change [4],log2 fold change (crizotinib),log2 fold change [5],log2 fold change [6],log2 fold change (gandotinib),log2 fold change [7],log2 fold change (doramapimod),log2 fold change (ispinesib),log2 fold change (duvelisib),log2 fold change (tozasertib)
FBXO38 (UniProt Q6PIJ6),inactive: -0.335,inactive: 0.162,inactive: -0.061,inactive: -0.044,,inactive: -0.005,,,inactive: -0.029,,inactive: 0.13,inactive: 0.062,inactive: 0.041,inactive: 0.056,,inactive: 0.169,inactive: -0.044,inactive: 0.071,inactive: -0.103,inactive: -0.059
FAT2 (UniProt Q9NYQ8),inactive: 0.247,,inactive: 0.104,,inactive: 0.208,inactive: 0.031,,inactive: -0.024,inactive: -0.089,inactive: -0.497,,inactive: -0.148,inactive: 0.131,inactive: 0.306,inactive: -0.149,inactive: 0.121,inactive: 0.006,inactive: -0.006,,

Reference: the supplement of paper PMC10849652
